Data reported in publication PMC13452685.
Results are given in words; binding and its absence hold for the method and conditions named. In cells and extracts the contact can be indirect. A result given as binding can be weak or reduced; the word gives no strength. Blank lines part the entries; values can stand above or below the binder they belong to.

Biological target: Apoptosis-associated speck-like protein containing a CARD (rat (endogenous in primary cortical neurons))
Assay: co-IP; lysates of rat primary cortical neurons after OGD/R incubated overnight at 4°C with anti-ASC or mouse IgG, protein A/G magnetic beads 2 hours at 4°C, western blot of the eluate

binding: binds
B1: Z-DNA binding protein 1 (protein, UniProt Q8VDA5 1-409)
chain: MAEASVDLGTGDNLEQKILQVLSDAGSPVQIDQLLKKLQVPKKILNQVLYRLKKEGRVSSPAPATWSLGGDGASGDGAPEIPEDSAAQPSLEERILRFLETKGPQRALHIAKALGMTTAKEVNPILYSMRNKHLLTVSDTQMWTIYRSSQEGQERACSGVGQESPAVIYQQNPINMICQQGPNSLISISNSKAIQIGHGNVMSRQTICGDPGPGTPHHAPLPVLEDAAAQDTPPGTHGAQLIHLNKSMLRRVQLGHGNEMNLERDPVEHPIFSFSSSPPESTTTADPETAFNMQTPEPGPHPEGGTTQIVHIKSCLLEDTTVGNNNKMTIHRRSKGGTKESADSQELKEDTGASSEATPPRSCLHTPSDSTLLTSELTAMALGDGSPQITESMLREDEVQAAETCQTQD

binding: binds
B2: cysteinyl aspartate specific protease 8 (enzyme, UniProt Q9JHX4 1-482)
chain: MDFHSCLYDIAERLGNEELAALKFLCLDHIPQKKQESINDVLVLFQRLQEEGMLEEDNLSFLKELLFHISRRDLLSRVLKSSPEEMVRELQVLGKAQVSAYRVMLFKLSEDMDKEDLKSFKFLLITEIPKCKLQDNSSLLDIFVEMEKRTILAENNLVTLKSICFRVNRSLLGRIDDYERSSTERRMSTEGGEELPVSVLDEVTIKMQDMWDSPGEQESESLNSDNVYQMKSKPRGYCLIFNNNNFSKAREDIPKLSNMRDRKGTNYDEEALSKTFKELHFEIVSFSDCTASQIHEVLVSYQSKDHKGKDCFICCILSHGDKGIVYGTDGKEASIYELTSYFTGSKCPSLAGKPKIFFIQACQGNNFQKAVPVPDETGLEQEHVLEEDSSSYKNYIPDEADFLLGMATVKNCVSYRDPTRGTWYIQSLCQSLRERCPRGEDILSILTGVNYDVSNKDNPRNMGKQMPQPIFTLRKKLFFPPN
